Article doi:10.1101/2021.09.27.462041
No constants are given. Whether binding was seen depends on the method and setting. In cells and extracts the contact can be indirect. Sequences can lack the tags named with a protein.

Target: T1, HA-tagged N-terminal (HA-NT) DIDO3 fragment, DIDO3(1-528) (mouse) (UniProt Q8C9B9)
T1 sequence: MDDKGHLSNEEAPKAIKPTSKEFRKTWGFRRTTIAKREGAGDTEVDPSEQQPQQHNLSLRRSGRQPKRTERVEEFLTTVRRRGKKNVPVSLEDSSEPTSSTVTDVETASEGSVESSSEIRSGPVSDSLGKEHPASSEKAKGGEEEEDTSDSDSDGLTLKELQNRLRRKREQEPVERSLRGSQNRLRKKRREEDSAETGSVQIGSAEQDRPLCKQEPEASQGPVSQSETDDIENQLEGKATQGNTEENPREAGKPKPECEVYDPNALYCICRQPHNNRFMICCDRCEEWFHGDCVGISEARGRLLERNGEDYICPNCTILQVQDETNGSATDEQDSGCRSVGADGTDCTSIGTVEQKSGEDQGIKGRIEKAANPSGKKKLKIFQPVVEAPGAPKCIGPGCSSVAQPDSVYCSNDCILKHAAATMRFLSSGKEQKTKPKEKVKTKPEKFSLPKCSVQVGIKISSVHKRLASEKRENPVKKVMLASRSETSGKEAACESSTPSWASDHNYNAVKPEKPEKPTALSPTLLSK
Experiment: co-IP

binding: no binding
B1: CTCF (protein, UniProt Q61164 1-736)
chain: MEGEAVEAIVEESETFIKGKERKTYQRRREGGQEEDACHLPQNQTDGGEVVQDVNSSVQMVMMEQLDPTLLQMKTEVMEGTVAPEAEAAVDDTQIITLQVVNMEEQPINIGELQLVQVPVPVTVPVATTSVEELQGAYENEVSKEGLAESEPMICHTLPLPEGFQVVKVGANGEVETLEQGELPPQEDSSWQKDPDYQPPAKKTKKTKKSKLRYTEEGKDVDVSVYDFEEEQQEGLLSEVNAEKVVGNMKPPKPTKIKKKGVKKTFQCELCSYTCPRRSNLDRHMKSHTDERPHKCHLCGRAFRTVTLLRNHLNTHTGTRPHKCPDCDMAFVTSGELVRHRRYKHTHEKPFKCSMCDYASVEVSKLKRHIRSHTGERPFQCSLCSYASRDTYKLKRHMRTHSGEKPYECYICHARFTQSGTMKMHILQKHTENVAKFHCPHCDTVIARKSDLGVHLRKQHSYIEQGKKCRYCDAVFHERYALIQHQKSHKNEKRFKCDQCDYACRQERHMIMHKRTHTGEKPYACSHCDKTFRQKQLLDMHFKRYHDPNFVPAAFVCSKCGKTFTRRNTMARHADNCAGPDGVEGENGGETKKSKRGRKRKMRSKKEDSSDSEENAEPDLDDNEEEEEPAVEIEPEPEPQPQPPPPPQPVAPAPPPAKKRRGRPPGRTNQPKQNQPTAIIQVEDQNTGAIENIIVEVKKEPDAEPAEGEEEEAQAATTDAPNGDLTPEMILSMMDR
